According to PubChem BioAssay AID493014 (National Center for Advancing Translational Sciences (NCATS), 2011):
This is one part of the list. The main result of the screen is listed elsewhere. These columns were measured beside it and carry no call. Most of these compounds were active or inconclusive in the main read-out, so they are no random draw. The note in brackets gives the kind of curve behind each potency; many fits are weak.

Experiment: qHTS Assay to Find Inhibitors of Chronic Active B-Cell Receptor Signaling
Details: ABC-DLBCL IkBa-CBG/CBR reporter, luminescence ratio (green luciferase fused to IkBa over red control in TMD8 lymphoma cells), 4 h
How it was run: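 Doxycycline induced both beetle luciferases in TMD8 lymphoma cells; IKK-driven degradation limits the IkappaBalpha-fused green signal, while red luminescence normalises for cell number and nonspecific effects. Compounds tested up to 46 uM, 4 hrs.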

[1] = measured here: CBR red luminescence, cell number

| SMILES | AC50 [1] | AC50 (measured here: IkBa-CBG green luminescence) |
| --- | --- | --- |
| COc1ccc(OC)c(NC(=O)N2CCCC(CNS(=O)(=O)c3cccs3)C2)c1 (configuration not stated) | 15.8 µM [falling, partial curve, poor fit] |  |
| O=c1c2c3nc4ccccc4nc3n(/N=C/c3ccccn3)c2ncn1-c1ccccc1 | 1.78 µM [falling, full curve, poor fit] |  |
| O=C(NCc1ccccc1)C(=O)NCC1OCCN1S(=O)(=O)c1ccc2c(c1)OCCO2 (configuration not stated) | 23.1 µM [rising, single point] |  |
| COC(=O)c1ccc(CO/N=C/c2ccc(OC)cc2)o1 | 14.1 µM [falling, single point] |  |
| CSc1ccccc1NC(=O)CN(C)CC(=O)Nc1c(F)cccc1F | 2.91 µM [rising, full curve, poor fit] |  |
| COc1cc(OC)cc(C(=O)NCCSCc2ccc(Cl)cc2)c1 | 15.8 µM [falling, single point] |  |
| O=C1C(=C(c2ccccc2)c2ccccc2)Nc2ccccc21 | 23.1 µM [falling, single point] |  |
| O=C(Nc1nccs1)c1ccc(CSc2ccccc2)o1 | 10 µM [falling, partial curve, poor fit] |  |
| O=C(c1c(F)cccc1F)N1CCN(S(=O)(=O)c2ccc3c(c2)OCCO3)CC1 | 16.4 µM [falling, partial curve, poor fit] |  |
| Cc1cccc(-c2nc(CSCC(=O)N3CCN(c4ccccn4)CC3)c(C)o2)c1 | 11.2 µM [falling, partial curve, poor fit] |  |
| O=S(=O)(NC1CCC(NS(=O)(=O)c2c(F)cccc2F)CC1)c1ccc2c(c1)OCCO2 (configuration not stated) | 23.1 µM [rising, single point] |  |
| O=C(NNC(=O)c1cccs1)c1ccccc1 | 25.1 µM [falling, single point] |  |
| O=C(NC(=S)Nc1ccccc1Cl)C1CC1 | 8.91 µM [falling, partial curve] | 12.6 µM [falling, partial curve, poor fit] |
| CSc1ccccc1NC(=O)Nc1ccc(F)c(Cl)c1 | 0.316 µM [falling, full curve, poor fit] |  |
| COc1ccc(CCNC(=S)Nc2cccc(C)c2)cc1 | 0.731 µM [rising, full curve, poor fit] |  |
| CCn1c(-c2cc(-c3cccc(OC)c3)nc3ccccc23)n[nH]c1=S | 32.6 µM [falling, single point] |  |

| SMILES | AC50 [1] | AC50 (measured here: IkBa-CBG green luminescence) |
| --- | --- | --- |
| CC12CCC(C(=O)Nc3ccccc3Br)(C/C1=N\O)C2(C)C (configuration not stated) | 11.2 µM [rising, partial curve, poor fit] |  |
| COC(=O)c1c(NC(=O)CS(=O)(=O)c2ccccc2)sc(C)c1C | 1.46 µM [falling, full curve] |  |
| CCCCCC(=O)N/N=C/c1ccco1 | 1.64 µM [rising, full curve, poor fit] |  |
| O=C1CC(c2c[nH]c3ccccc23)C(=O)N1 (configuration not stated) | 29.1 µM [falling, single point] |  |
| COc1ccc(OC)c(S(=O)(=O)NNC(=S)Nc2ccc3c(c2)OCO3)c1 | 0.355 µM [rising, full curve, poor fit] |  |
| COc1cccc(C2=NN(C(=O)c3ccco3)C(O)(C(F)(F)F)C2)c1 (configuration not stated) | 11.2 µM [falling, partial curve, poor fit] |  |
| CC1(c2ccccc2)NC(=O)N(CC(=O)NNC(=O)c2cccc(Cl)c2)C1=O (configuration not stated) | 0.517 µM [rising, partial curve, poor fit] |  |
| Cc1cc(C)n(-c2nc(Nc3ccccc3C)nc(-n3nc(C)cc3C)n2)n1 | 0.631 µM [falling, full curve, poor fit] |  |
| CCCCC(=O)Nc1cc(C(=O)NCCc2ccccc2)ccc1Cl | 35.5 µM [falling, single point] |  |
| CC(C)S(=O)(=O)N1CCCC(C(=O)c2cccc(Cl)c2)C1 (configuration not stated) | 12.6 µM [rising, partial curve, poor fit] |  |
| CCN1C(=O)S/C(=C\c2ccc(N3CCOCC3)cc2C)C1=O | 0.708 µM [rising, full curve, poor fit] |  |
| Cc1nc(N)sc1C(=O)NN | 0.631 µM [falling, partial curve, poor fit] |  |
| CCOC(=O)c1cc(-c2cccs2)[nH]n1 | 1.58 µM [rising, partial curve, poor fit] |  |
| O=C(O)c1ccccc1N/N=C\c1ccnc2ccccc12 | 0.1 µM [rising, full curve, poor fit] |  |
| CC(C)Oc1ccc(C(=O)Nc2ccc3c(c2)n(C)c(=O)n3C)cc1 | 14.1 µM [rising, single point] |  |

Whole records, looked up by structure.
`COc1ccc(OC)c(S(=O)(=O)NNC(=S)Nc2ccc3c(c2)OCO3)c1` as listed: AC50 [1]: 0.355 µM [rising, full curve, poor fit]
`O=C(NC(=S)Nc1ccccc1Cl)C1CC1` as listed: AC50 [1]: 8.91 µM [falling, partial curve]; AC50 (measured here: IkBa-CBG green luminescence): 12.6 µM [falling, partial curve, poor fit]
